Test results: publication PMC8134551
Results are given in words; binding and its absence hold for the method and conditions named. Binding seen in cells or lysates may run through a third protein. Some results given as binding are weak or reduced against the parent protein; the word gives no strength. Each block holds one molecule with its values, some of them ahead of it.

Amino acid sequences for entries named in this document (tags omitted).
UniProt O95817: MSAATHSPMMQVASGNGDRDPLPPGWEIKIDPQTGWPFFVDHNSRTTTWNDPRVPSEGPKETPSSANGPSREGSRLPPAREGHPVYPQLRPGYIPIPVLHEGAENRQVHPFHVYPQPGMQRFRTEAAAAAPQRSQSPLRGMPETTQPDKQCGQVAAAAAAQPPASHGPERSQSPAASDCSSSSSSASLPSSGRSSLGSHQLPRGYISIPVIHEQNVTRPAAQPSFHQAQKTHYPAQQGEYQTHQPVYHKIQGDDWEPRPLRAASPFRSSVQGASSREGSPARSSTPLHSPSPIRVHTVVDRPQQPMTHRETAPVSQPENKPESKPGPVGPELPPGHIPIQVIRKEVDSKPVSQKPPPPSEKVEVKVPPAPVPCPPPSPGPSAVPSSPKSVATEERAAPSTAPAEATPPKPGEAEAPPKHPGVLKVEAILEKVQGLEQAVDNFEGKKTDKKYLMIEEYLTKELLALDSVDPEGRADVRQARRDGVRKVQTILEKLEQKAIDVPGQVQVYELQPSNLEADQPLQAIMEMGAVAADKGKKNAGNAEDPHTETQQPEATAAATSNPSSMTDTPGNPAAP

How the values were obtained:
[1] = target: T1, HSPB8 (human (endogenous in left ventricle tissue)) (UniProt Q9UJY1); assay: co-IP; reciprocal co-immunoprecipitation from human LV myofilament-enriched protein lysate with antibody crosslinked to Dynabeads Protein G; non-specific IgG control; western blot
T1 sequence: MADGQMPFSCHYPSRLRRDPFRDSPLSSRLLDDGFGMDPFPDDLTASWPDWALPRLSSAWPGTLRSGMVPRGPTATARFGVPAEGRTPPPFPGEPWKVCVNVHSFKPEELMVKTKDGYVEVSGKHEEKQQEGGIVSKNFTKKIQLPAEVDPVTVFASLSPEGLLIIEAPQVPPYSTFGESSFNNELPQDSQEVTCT

[2] = target: Bcl2-associated athanogene 3 (BAG3) (human (endogenous in left ventricle tissue)) (UniProt O95817); assay: as above

binding [1]: binds
Molecule: Bcl2-associated athanogene 3 (BAG3) (from UniProt O95817 1-575)

binding [2]: binds
B1: HSPB8 (protein, UniProt Q9UJY1 1-196)
chain: T1 sequence
